These are yes or no findings as the source states them, for the method shown. Some results given as binding are weak or reduced against the parent protein; the word gives no strength.
Assays:
[1] = target: basic FGF (bFGF) (UniProt P09038); test: competition of 125I-bFGF binding to plate-coated Construct #1
[2] = target: basic FGF (bFGF) (UniProt P09038); test: competition of 125I-bFGF binding to HEK293 cells overexpressing FGFR1

Protein sequences, listed by entry. Tags and fused reporters are not part of them. Residues count along the entry.
UniProt P09038, residues 143-288: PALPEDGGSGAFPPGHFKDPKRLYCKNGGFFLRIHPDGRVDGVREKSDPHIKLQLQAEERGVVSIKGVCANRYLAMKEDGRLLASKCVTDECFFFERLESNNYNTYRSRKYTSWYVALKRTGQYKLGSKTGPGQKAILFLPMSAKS
UniProt P11362, residues 22-376: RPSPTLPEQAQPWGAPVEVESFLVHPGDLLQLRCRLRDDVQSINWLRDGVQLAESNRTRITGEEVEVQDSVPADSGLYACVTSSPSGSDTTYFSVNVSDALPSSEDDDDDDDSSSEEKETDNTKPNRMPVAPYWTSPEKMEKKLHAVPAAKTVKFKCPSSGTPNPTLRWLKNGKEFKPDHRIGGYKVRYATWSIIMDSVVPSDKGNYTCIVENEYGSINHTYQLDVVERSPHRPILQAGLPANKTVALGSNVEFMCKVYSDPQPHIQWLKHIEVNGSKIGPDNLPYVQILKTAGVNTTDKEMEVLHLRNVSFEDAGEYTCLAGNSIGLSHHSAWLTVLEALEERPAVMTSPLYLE

binding [1]: binds | binding [2]: binds
Substance: FGFR monomer (U.S. Pat. No. 5,229,501) (from UniProt P11362 22-376) (receptor)
